From patent US20240116893A1, “Compounds for Disease Treatment” (Duke University, priority 2021, published 2024)
For at least one compound, name, drawing or mass did not settle the structure.

By UniProt entry, the sequences of proteins in these tests, tags left out. Where a name states a change or a piece, a line headed by the entry shows the natural chain unless it says otherwise.
UniProt P49760, whole entry: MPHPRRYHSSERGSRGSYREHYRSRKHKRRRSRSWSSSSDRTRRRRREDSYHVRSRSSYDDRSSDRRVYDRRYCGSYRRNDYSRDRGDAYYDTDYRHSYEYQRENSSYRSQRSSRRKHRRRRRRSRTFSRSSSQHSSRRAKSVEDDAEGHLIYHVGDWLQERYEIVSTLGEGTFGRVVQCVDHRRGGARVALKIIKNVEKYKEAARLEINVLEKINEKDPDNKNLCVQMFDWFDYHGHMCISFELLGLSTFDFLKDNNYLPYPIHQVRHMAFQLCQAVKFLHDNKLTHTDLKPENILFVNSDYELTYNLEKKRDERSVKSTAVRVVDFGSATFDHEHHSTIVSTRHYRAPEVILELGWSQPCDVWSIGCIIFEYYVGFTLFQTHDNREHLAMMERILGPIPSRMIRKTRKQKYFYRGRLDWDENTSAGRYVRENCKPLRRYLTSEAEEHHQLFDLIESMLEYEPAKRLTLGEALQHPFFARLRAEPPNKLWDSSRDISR
UniProt Q12851: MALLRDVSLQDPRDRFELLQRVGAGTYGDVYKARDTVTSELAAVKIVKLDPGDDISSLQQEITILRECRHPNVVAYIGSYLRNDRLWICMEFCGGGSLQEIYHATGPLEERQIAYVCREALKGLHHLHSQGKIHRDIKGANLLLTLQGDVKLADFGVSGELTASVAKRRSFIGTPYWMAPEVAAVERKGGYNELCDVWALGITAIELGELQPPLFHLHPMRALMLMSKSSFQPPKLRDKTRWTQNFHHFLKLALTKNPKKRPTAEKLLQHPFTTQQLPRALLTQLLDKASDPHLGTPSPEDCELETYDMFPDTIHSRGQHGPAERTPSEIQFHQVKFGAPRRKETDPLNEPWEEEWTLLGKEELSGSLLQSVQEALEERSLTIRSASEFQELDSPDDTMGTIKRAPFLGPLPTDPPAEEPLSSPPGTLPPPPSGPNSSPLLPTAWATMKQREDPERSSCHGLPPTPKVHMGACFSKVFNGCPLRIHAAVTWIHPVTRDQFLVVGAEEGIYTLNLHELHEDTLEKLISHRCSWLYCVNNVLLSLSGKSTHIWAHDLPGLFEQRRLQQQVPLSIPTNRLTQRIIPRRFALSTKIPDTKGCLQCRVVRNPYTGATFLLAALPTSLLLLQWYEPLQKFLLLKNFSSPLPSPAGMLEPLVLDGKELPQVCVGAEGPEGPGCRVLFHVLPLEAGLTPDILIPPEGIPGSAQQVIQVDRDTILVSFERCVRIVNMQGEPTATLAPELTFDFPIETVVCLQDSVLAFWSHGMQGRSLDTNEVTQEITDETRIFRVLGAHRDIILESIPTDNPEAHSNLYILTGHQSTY

Tests used:
CLK2 = CLK2 (Homo sapiens (Human), UniProt P49760); test: Dose-response of top 10 kinases (FIG. 1A); assay type: biochemical
Experimental: (§1) Next, dose-response experiments of the top 10 kinases inhibited by compound 5 in the initial kinome screen were conducted as described in EXAMPLE 5. […] The top 10 kinases were selected in an initial kinome screen.

GCK = GCK (Homo sapiens (Human), UniProt Q12851); test: Dose-response of top 10 kinases (FIG. 1A); assay type: biochemical
Experimental: as §1

THP-1 human macrophages = test: Cytokine expression in THP-1 macrophages stimulated with LPS and IFNγ; assay type: cell-based
Experimental: THP-1 cells were treated with 100 nM phorbol 12-myristate 13-acetate (PMA) for 72 hours in RPMI 1640X media. Cells were rested in PMA free media 24 hours prior to treatments. LPS (10 ng/mL) was used for pro-inflammatory stimulation.
THP-1 cells were treated with 10 μM of designated drug or vehicle (DMSO) and 24 hours after treatment, supernatant was added to Human Cytokine XL proteome array (R&D Systems) in accordance with manufacturer protocol. Chemiluminescence was used to visualize protein quantities.
To evaluate the anti-inflammatory effects of compounds 3, 5, and 6, THP-1 human macrophages were stimulated with LPS and IFNγ in the presence of TAK1 inhibitor (10 μM) or vehicle.

[1] = test system: Collagen Type II Induced Arthritis (CIA); test: CIA mouse model of inflammatory arthritis; assay type: in vivo, DBA/1 mice; details: 50 mg/kg IP, QD days 21-26, Q2D days 27-36

CCCn1/c(=N/C(=O)c2cccc(C(N)=O)c2)[nH]c2ccc(CN3CCCCC3)cc21 [Compound 5]
TAK1 inhibition more potent than CLK2 (CLK2): 3.6 fold
TAK1 inhibition more potent than GCK (GCK): 4.1 fold
CCL1 expression compared to vehicle treated cells (THP-1 human macrophages; 10 μM, LPS and IFNγ): significant reductions
CXCL11 expression compared to vehicle treated cells (THP-1 human macrophages; 10 μM, LPS and IFNγ): significant reductions
GROa expression compared to vehicle treated cells (THP-1 human macrophages; 10 μM, LPS and IFNγ): significant reductions
ICAM-1 expression compared to vehicle treated cells (THP-1 human macrophages; 10 μM, LPS and IFNγ): significant reductions
IL-1B expression compared to vehicle treated cells (THP-1 human macrophages; 10 μM, LPS and IFNγ): significant reductions
IL-6 expression compared to vehicle treated cells (THP-1 human macrophages; 10 μM, LPS and IFNγ): significant reductions
MIF expression compared to vehicle treated cells (THP-1 human macrophages; 10 μM, LPS and IFNγ): significant reductions
TNF secretion (THP-1 human macrophages; LPS and IFNγ challenge, FIG. 1D): significantly and selectively reduced
clinical arthritis scores on days 26 through 36 vs disease control [1]: significantly reduced
disease onset [1]: significantly delayed
histological evaluation of forepaw, knee and ankle joint tissues ([1]; FIG. 3D): significantly fewer pathological changes
